# Assay results reported in the supplement of paper PMC3334620.
# Over roughly 33,000 sequences, “E-score (-0.5 to 0.5)” has its median near -0.0059; the highest 2% begin near 0.26. This is one part of the list.
# Target: T1, Cin5 (UniProt P40917)
# T1 sequence: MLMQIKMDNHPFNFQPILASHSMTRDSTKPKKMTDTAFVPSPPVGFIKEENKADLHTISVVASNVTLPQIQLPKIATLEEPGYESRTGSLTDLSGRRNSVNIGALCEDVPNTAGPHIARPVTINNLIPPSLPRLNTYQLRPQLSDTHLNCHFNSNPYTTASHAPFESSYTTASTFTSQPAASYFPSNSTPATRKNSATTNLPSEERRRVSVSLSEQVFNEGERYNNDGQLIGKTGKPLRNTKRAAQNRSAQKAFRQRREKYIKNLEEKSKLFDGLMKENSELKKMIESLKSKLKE
# Experiment: PBM E-score (8-mer binding enrichment) (E-score (-0.5 to 0.5)); higher = stronger / more preferred TF binding
# Conditions: protein concentration: 100 nM; construct: GST-full length
# In short: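 Universal all-10-mer Agilent arrays, fresh or stripped once, were converted to double-stranded form by primer extension. GST-tagged yeast transcription factors from PURExpress in vitro transcription/translation, full-length or DNA-binding domain only, were applied at about 100-200 nM and detected with fluorescent anti-GST. After masliner normalisation, the Universal PBM Analysis Suite scored each ungapped eight-base word together with its reverse complement by E-score.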
row,Sequence,PBM E-score
1,GGAGGCAC,-0.261
2,CACCTGTA,-0.149
3,ATACAAAG,0.127
4,GACAGAGC,-0.119
5,GCTACCCA,-0.155
6,AACTGGGA,-0.0428
7,AGAGGGTC,-0.334
8,AAAAAGGG,-0.0374
9,AGGGAAAA,-0.00546
10,CTGCATTC,0.127
11,CAACACAC,0.106
12,AAGTCGTC,-0.133
13,TACCCCTA,0.141
14,TAGATCTA,0.117
15,ATATCAAA,0.166
16,AGCCGTTC,-0.271
17,GGTCGGAC,-0.21
18,CGCAAGCG,-0.101
19,AGTGTAGA,0.0156
20,CAGGCCTG,-0.128
21,CGCAGGGA,-0.129
22,ACTCGATG,0.1
23,CCTCAGGA,-0.00304
24,ACTGGGTG,-0.04
25,AAAACCCA,0.248

row,Sequence,PBM E-score
1,GCTCGCAA,0.0666
2,ACTCTTTC,-0.0901
3,CCTTCTGA,-0.0192
4,ATCTAGAA,0.102
5,ATGATAAA,0.188
6,CATCTAGG,-0.0172
7,CTTCGTAA,0.0958
8,CCTAATAA,0.0783
9,ATATACGG,0.0225
10,CCCCAAAA,-0.0403
11,ATAAGCCC,-0.0352
12,GGATACGA,-0.0639
13,GCACGAAC,0.136
14,GGAATCAC,0.113
15,CCATCTAA,-0.0666
16,AGAGCACG,-0.0527
17,AACACTAA,0.028
18,GGAAATGA,0.226
19,GATAAGGA,-0.0531
20,AACAACTG,0.135
21,AATCACGT,0.17
22,CGCTAGCA,-0.187
23,ATGTCGGG,-0.0236
24,CAGATCGA,0.0169
25,AGGCCGAG,-0.0405

# Retrieved one by one from the list above:
row,Sequence,PBM E-score
8,CCTAATAA,0.0783
3,CCTTCTGA,-0.0192

# The listing continues:

row,Sequence,PBM E-score
1,TGGCTGAA,-0.0107
2,CTCCAAAG,-0.0924
3,AAGATGCC,0.0779
4,ACTTTAGC,-0.0814
5,AGGGGAAC,-0.212
6,CCTACTCG,-0.0287
7,CATAAACC,0.161
8,AGGTATGG,-0.114
9,GATACATC,0.134
10,ATGTCTAC,-0.234
11,AAAAAACT,-0.189
12,ATGTTGGA,0.184
13,GCTTTCCA,-0.0168
14,GGTTTTCA,0.0843
15,CATTTCCC,0.189
16,ATAATGCC,-0.0311
17,TACTCTGA,0.0471
18,CGTCCTAA,-0.103
19,GCGTGCAC,-0.115
20,CATAACGG,-0.021
21,CGCGTTAC,0.127
22,GACCTAGA,-0.0788
23,GTTAAAAC,-0.0559
24,TTCTAAAA,-0.174
25,AAGTAGCA,0.038

row,Sequence,PBM E-score
1,CCTGTCAG,-0.0565
2,ATGGAACC,-0.0476
3,ACTGCGCC,-0.195
4,ACGGGTCT,-0.292
5,AGGATTTC,0.122
6,AAAATACA,0.103
7,CGAATAGC,-0.00363
8,CAGTCACC,-0.208
9,GAAGGGCA,-0.205
10,ACCTTGTG,-0.0491
11,ATAACAAA,0.226
12,ACAACTTA,0.184
13,AGACAGGG,-0.263
14,GTCCGTTA,0.12
15,AGCCTGTG,-0.126
16,ATCTCTAC,0.108
17,CACTGCCG,-0.104
18,GACTTTAA,-0.00088
19,GTCATGCA,0.00703
20,CCCCCACG,-0.434
21,ACATCGGA,-0.037
22,CTTCCTGC,-0.233
23,CAGTGCTA,-0.0638
24,AAATTAAG,0.0939
25,CCATGCGG,-0.108

# Some values from the results shown.
# In PBM E-score, CGCAAGCG has -0.101
# In PBM E-score, GATAAGGA has -0.0531

# Following part.

row,Sequence,PBM E-score
1,CTATAACC,-0.144
2,AGTTATTA,0.199
3,AGGACTTG,-0.201
4,GCGAAGGA,-0.156
5,GTATAGGA,-0.0959
6,GCCCCAGC,-0.0437
7,AAGTTCCC,-0.0726
8,CCCATCAA,0.0995
9,TGCTGCCA,-0.0641
10,CACCTTCC,0.0119
11,ATTCCACA,0.266
12,AAAGTCTA,-0.0672
13,ACTGACGC,-0.208
14,GAGAACAA,0.269
15,TGAATCAA,0.149
16,ATCATCTC,0.165
17,ACGTAGAA,0.105
18,GTTCAACA,0.0706
19,AAACACCA,-0.00871
20,ACGGCCCA,-0.17
21,ATTGGGCA,-0.0554
22,CAGTCTAG,-0.296
23,AGTTTCCG,0.147
24,CTAGGTCA,-0.107
25,ATCGCTGG,-0.194

row,Sequence,PBM E-score
1,CGCCCGGA,0.0086
2,GGTTCCAC,-0.0569
3,CACTGCAA,0.0112
4,ACGTCGCT,-0.0654
5,CCATAAGG,-0.181
6,TAAGGTCA,0.0703
7,AATCGGCG,-0.0653
8,ACCCCTAA,0.0174
9,ACAAAGGT,0.0396
10,ACAAACGT,-0.0354
11,ACACACAA,0.132
12,CGAGCGCC,-0.287
13,CGAGGACC,-0.154
14,AGCTGAGG,-0.181
15,CCGGTTCG,-0.166
16,GATGCAGA,0.118
17,CTAACGAG,0.0251
18,CCTGAACG,-0.107
19,CCAACCGA,0.177
20,AGGCCCCA,-0.138
21,AGCTCACA,-0.0223
22,CACTAGAC,-0.062
23,ACTGCTAA,-0.0789
24,ATAGTGCA,0.029
25,GGATCCTA,-0.0459

row,Sequence,PBM E-score
1,AGCTTTAT,-0.0954
2,ATTTCCAA,-0.0562
3,GACATTGA,0.126
4,AAATAGCA,0.0744
5,CTCGCGGA,0.024
6,CCATCCAG,-0.135
7,AGCCATGC,-0.0545
8,AGATGGGG,-0.0629
9,AACTTAGA,0.105
10,ACGAGCGT,-0.197
11,CGTCTGGA,-0.345
12,AGGGGAAT,0.0631
13,GGAAGCAC,-0.124
14,CATATCCC,0.122
15,CGACTCAC,-0.212
16,CTTAGAGA,-0.0314
17,CTAGAGAA,0.0802
18,CGCAAAAG,-0.103
19,TATTGCAA,0.212
20,CGTACCTA,-0.0475
21,CAAAAGAC,0.0282
22,AGAATCGG,-0.0541
